Results from patent US20190194313A1.
These are yes or no findings as the source states them, for the method shown. Some results given as binding are weak or reduced against the parent protein; the word gives no strength.

What was measured:
[1] = molecular target: Cynomolgus sIL6R (cynomolgus); test: BLI, Octet Red 96
[2] = molecular target: Cynomolgus sIL6R (cynomolgus); test: ELISA (enzyme immunoassay), antibody titrated 2 to 0.0039 ug/ml; plate format not described

B1: BCD089 antibody (anti-IL-6sR) (antibody, IgG1, V domains shown)
VH: QVQLVQSGGGLVQPGGSLRLSCAASGFTFSSYYMSWVRQAPGKGLEWVSGIYSDGTTHYGDSVKGRFTISRDNAKNTVYLQLNSLRAEDTAMYYCAKGAGPTWWYALDAWGQGTLVTVSS
VL: DIQLTQSPSSVSVSVGERVTIDCKSSQSVLSASNTYLNWYQQKPGQAPQLLIYYASTRESGVPDRFSGSGSGTDFTLTISSLQAEDAAVYYCQQAYRAPVTFGQGTKLEIKR
binding [1]: binds | binding [2]: binds
